The other results are listed elsewhere or left out.
Target: OsWRKY34 (Oryza sativa, UniProt Q0JBA9 1-250)
Experiment: protein-binding microarray (RPBM); PBS, 2% BSA, 51.3 ng/ul salmon testes DNA, 50 uM zinc acetate, 200 nM TF, 25 C, 1 h; high values mean tight binding
Conditions: protein: recombinant; tags: N-terminal polyhistidine and DsRed monomer fusion (pET32a); label: CyDye5-dUTP incorporated in the synthesized complementary strand; 3' TTTTT single-stranded linker to array surface; dsDNA, one strand shown
In short: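 Binding signal is reported as fluorescence intensity per feature (arbitrary units) from an Axon 4000B scanner. Incubation used 200 nM of each Ni–NTA-purified, N-terminally polyhistidine- and DsRed-fused transcription factor from E. coli BL21-CodonPlus on a double-stranded custom Agilent array for 1 h at 25 °C, with 50 µM zinc acetate in the buffer, followed by washing.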

Sequences of proteins named here, by UniProt entry; tags and fusion partners are left off.
UniProt Q0JBA9, entry or part of it: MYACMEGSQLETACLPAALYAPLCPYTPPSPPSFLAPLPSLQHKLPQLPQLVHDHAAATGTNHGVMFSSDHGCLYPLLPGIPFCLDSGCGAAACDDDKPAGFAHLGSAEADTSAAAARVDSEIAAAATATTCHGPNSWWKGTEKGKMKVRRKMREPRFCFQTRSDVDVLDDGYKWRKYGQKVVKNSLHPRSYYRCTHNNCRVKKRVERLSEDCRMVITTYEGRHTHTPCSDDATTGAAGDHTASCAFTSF

Sequence	binding signal
TATAATTTTTGTTTTCTTCTCTCATGTTGCCAGTTCTTGACGGAGTCACCTAGTGCAG	9080 fluorescence intensity (a.u.)
CTTTTCATTTCTGTGTTGATTGCTCTTTTTCTCAGACGTTCGGAGTCACCTAGTGCAG	8720 fluorescence intensity (a.u.)
TGCAATTTCACTTGTTTTCGATCGGGTCATATTCTCGTGTCGGAGTCACCTAGTGCAG	8290 fluorescence intensity (a.u.)
CGGCTCCAATTATCTCCATCTCTCTGTCTCCGTATTGACCCGGAGTCACCTAGTGCAG	8480 fluorescence intensity (a.u.)
ATCCTCATCTCCGTCTCTTTTACCTTAATCTCGCATATATCGGAGTCACCTAGTGCAG	9910 fluorescence intensity (a.u.)
ATGCCATTCTCTACAGGAGCACTGCTGTTTTTGCTCCATTCGGAGTCACCTAGTGCAG	8850 fluorescence intensity (a.u.)
CGCTCATCCGCCACCACGCGCTTCTTCTCGTTCTCCTCCACGGAGTCACCTAGTGCAG	9320 fluorescence intensity (a.u.)
CATCACATCAAACTTTTATACTCACATAAACTTCCAACTTCGGAGTCACCTAGTGCAG	8460 fluorescence intensity (a.u.)
GTCATTTTCGCCGCCCTCTGAGAGGGCGATTTTTAAAAATCGGAGTCACCTAGTGCAG	10100 fluorescence intensity (a.u.)
TCTGGCAGCTGTAAATGATTGGTAGCAATGTGTATCTTTACGGAGTCACCTAGTGCAG	8820 fluorescence intensity (a.u.)
GGGTGGTGATTCTTCTTGGCGCAGCCGGCCAGGTGAAAACCGGAGTCACCTAGTGCAG	10200 fluorescence intensity (a.u.)
CCTGTATTATGCTTATAATCGATTTTTTTTTTACATTTTGCGGAGTCACCTAGTGCAG	9440 fluorescence intensity (a.u.)
GCCTCCACCAGCTCTCTCACCCCAGAATTCCCAAATCCGCCGGAGTCACCTAGTGCAG	12200 fluorescence intensity (a.u.)
CATTTCTTCTGTATACGATTGAATCGGGTTATGACAAGCTCGGAGTCACCTAGTGCAG	8410 fluorescence intensity (a.u.)
ATCACCGCCATCGCCGCCGGGTCGCACAACTTCACCTTCGCGGAGTCACCTAGTGCAG	8360 fluorescence intensity (a.u.)
AATCTCCCACCACACATTGCTTTCTCGAAATCTCTCCGATCGGAGTCACCTAGTGCAG	8990 fluorescence intensity (a.u.)
TATGCGTTGTCAATGACTGTATATTGATTGATTGGTTATTCGGAGTCACCTAGTGCAG	9420 fluorescence intensity (a.u.)
TGGCTTGGTCCGCTAGTTCCTAACATCATGACAGTATTTTCGGAGTCACCTAGTGCAG	8280 fluorescence intensity (a.u.)
CAACCTCTCGCCTCCAGTTGCATTTCCCATTTCGATTCGACGGAGTCACCTAGTGCAG	9350 fluorescence intensity (a.u.)
CGCACACTCAGGACATGTTATCTGCTACCAGCCTGCATTCCGGAGTCACCTAGTGCAG	8310 fluorescence intensity (a.u.)
TCCGCCAACCGTTCGATCTCGGCCCAACCTCGCGCCTCTCCGGAGTCACCTAGTGCAG	10900 fluorescence intensity (a.u.)

Sequence	binding signal
CACTTGCACTTCGTCAGCTAGCTTCATTGCTTCATTCATTCGGAGTCACCTAGTGCAG	9910 fluorescence intensity (a.u.)
AGAGAATGTTGTGTTATTTGTTGCACGCGTATTTCAAATTCGGAGTCACCTAGTGCAG	10400 fluorescence intensity (a.u.)
GCTTCTATATGTTTAGATTGGTGCCAAATTTTACCAACACCGGAGTCACCTAGTGCAG	9410 fluorescence intensity (a.u.)
CTATCAATTCGCTCTATTATGTCGCTCAATTCTCTCTCGCCGGAGTCACCTAGTGCAG	8650 fluorescence intensity (a.u.)
GTCGCCGCCGCCGCCGCCATGCTCTCGCTCGCCGCCTCCTCGGAGTCACCTAGTGCAG	11300 fluorescence intensity (a.u.)
CCCGTTGCGTCGTGCTCCCGCAGCCTCGCGAGTCGCGACGCGGAGTCACCTAGTGCAG	11400 fluorescence intensity (a.u.)
CTAGCTTCCTCTGACCTCTACCACTTTGCTGCTATATAAACGGAGTCACCTAGTGCAG	10100 fluorescence intensity (a.u.)
CTTGTCCCGAATTTACTCTATTTCTTTCATCCCACCATTTCGGAGTCACCTAGTGCAG	10300 fluorescence intensity (a.u.)
GACTAGAGGTGTTTTTTTTTTTTTGAAACCTTCAACTTTCCGGAGTCACCTAGTGCAG	10300 fluorescence intensity (a.u.)
ACCAGACTGGGTCAACGGTTGAACCGGAAAAAACCGGAACCGGAGTCACCTAGTGCAG	9560 fluorescence intensity (a.u.)
TTTACTGCATCCTCAGCTAATTAGTGCTATTTACACATATCGGAGTCACCTAGTGCAG	9220 fluorescence intensity (a.u.)
TACGCGGGGATAATCGATCACTACCAACTCTCATCTCAACCGGAGTCACCTAGTGCAG	8980 fluorescence intensity (a.u.)
TGTCTAGCTGCTCCGACCAGTCAACCGTTGAACGTTGACTCGGAGTCACCTAGTGCAG	14700 fluorescence intensity (a.u.)
TGTATAGTTTAGGGGTGAAGATTTCTGGTTTTGTGGTTAACGGAGTCACCTAGTGCAG	11500 fluorescence intensity (a.u.)
GGTGAGTAGTTGTTCTTGCTGCTGTGGTTTCTTGATACTTCGGAGTCACCTAGTGCAG	16300 fluorescence intensity (a.u.)
CTTGCTCTTGACTCCGCTCTACCCGCCGCCGCCGCCCAAACGGAGTCACCTAGTGCAG	10100 fluorescence intensity (a.u.)
AATCTGCCTTTCATCTTTCTGTTCTTGGAGATTCATGGTTCGGAGTCACCTAGTGCAG	8070 fluorescence intensity (a.u.)
CACCTCAACTTAGAACATACTTCACCTTGCTCCTCTCTCTCGGAGTCACCTAGTGCAG	8130 fluorescence intensity (a.u.)
GAATACTTAGAGTGGTGGAAAGGTAATGTTGTTTTTTCGCCGGAGTCACCTAGTGCAG	9870 fluorescence intensity (a.u.)
CCTGTTGATTGGTTAGCCCAGCCCATGATGTAGCCCATGACGGAGTCACCTAGTGCAG	8570 fluorescence intensity (a.u.)
CCTTTTGGTACCTAGATGCTTTTTCGTCTATTTTATTACTCGGAGTCACCTAGTGCAG	8430 fluorescence intensity (a.u.)

Part of the list above, set out differently.
Sequence | binding signal
TCCGCCAACCGTTCGATCTCGGCCCAACCTCGCGCCTCTCCGGAGTCACCTAGTGCAG | 10900 fluorescence intensity (a.u.)
AGAGAATGTTGTGTTATTTGTTGCACGCGTATTTCAAATTCGGAGTCACCTAGTGCAG | 10400 fluorescence intensity (a.u.)
GAATACTTAGAGTGGTGGAAAGGTAATGTTGTTTTTTCGCCGGAGTCACCTAGTGCAG | 9870 fluorescence intensity (a.u.)

— article PMC7819943, “Rice protein-binding microarrays: a tool to detect cis-acting elements near promoter regions in rice”
